The results in this text go back to patent publication US20150224191A1 (VEGENICS, published 2015).

One assay concerns the target T1, VEGF-C Monomer.
T1 construct: a form of m2; also called monomer form of VEGF-C
T1 chain: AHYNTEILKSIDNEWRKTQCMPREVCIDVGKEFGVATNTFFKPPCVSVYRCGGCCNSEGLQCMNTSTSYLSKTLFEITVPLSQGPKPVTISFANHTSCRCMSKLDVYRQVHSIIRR
Put plainly: direct binding ELISA, antigen coated as capture antigen, bound VGX-100 detected with rabbit anti-human IgG-HRP, Abs 450 nm.

The target in a further assay is T2, VEGF-C (human, UniProt P49767 103-227, limits assumed).
T2 sequence: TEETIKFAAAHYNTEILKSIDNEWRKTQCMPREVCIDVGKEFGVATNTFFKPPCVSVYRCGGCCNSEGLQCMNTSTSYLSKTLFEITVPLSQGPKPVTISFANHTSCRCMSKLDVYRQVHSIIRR
Put plainly: direct binding ELISA, VEGF-C as capture antigen, detection with rabbit anti-human IgG-HRP.

No constants are given. Whether binding was seen depends on the method and setting. Some results given as binding are weak or reduced against the parent protein; the word gives no strength.

B1: VEGF-C antibody VGX-100 (antibody, human IgG1, lambda, V domains shown)
VH: EVRLLESGGGLVQPGGSLRLSCAASGFTFRPRAMAWVRQAPGKGLEWVSSISAQGASAYYADSVKGRFTISRDNSKNTLYLQMNSLRAEDTAVYYCARDLSVSGFGPWGRGTMVTVSS
VL: SYELTQPPSSSGTPGQRVTISCSGSSSNIGRHTVSWYQQVPGTAPKLLIYSDDHRPSGVPDRFSASKSGTSASLTITGLQSEDEADYYCAAWDDSLNGPWVFGGGTKLTVLG
For the molecule B1, the binding entry with VEGF-C Monomer and with VEGF-C was “binds” each time.
